# From PubChem BioAssay AID2099 (Broad Institute, 2009)
# By UniProt entry, the sequences of proteins in these tests, tags left out. Residues count along the entry.
# UniProt Q9H3R0, 1-420 limits assumed: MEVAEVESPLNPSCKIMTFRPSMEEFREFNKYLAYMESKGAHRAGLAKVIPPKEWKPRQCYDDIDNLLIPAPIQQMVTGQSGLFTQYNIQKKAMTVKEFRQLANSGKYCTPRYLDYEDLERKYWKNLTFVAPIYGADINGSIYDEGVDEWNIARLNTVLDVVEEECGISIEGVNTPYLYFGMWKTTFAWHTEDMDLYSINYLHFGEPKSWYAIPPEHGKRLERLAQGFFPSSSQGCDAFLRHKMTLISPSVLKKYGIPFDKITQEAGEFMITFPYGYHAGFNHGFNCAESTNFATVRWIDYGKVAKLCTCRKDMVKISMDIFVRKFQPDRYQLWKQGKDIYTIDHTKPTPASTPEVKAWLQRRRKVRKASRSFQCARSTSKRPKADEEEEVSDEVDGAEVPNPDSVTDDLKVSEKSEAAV
# Hit rate of the full screen: of about 330,000 compounds, about 230 (0.07%) were called active. This list was built around the results that the source calls inconclusive (neither active nor inactive); the mix of calls is not that of the screen.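 How the source made its calls: active means more than half of a compound's replicate wells show inhibition beyond 50%, single wells judged on their own value; inconclusive means some, but no more than half, of replicates pass 50% inhibition; inactive means no replicate passes 50% inhibition.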
# Biological target: Lysine-specific demethylase 4C (Homo sapiens) (UniProt Q9H3R0)
# Test: inhibitors of GASC-1 histone demethylase, primary screen, biochemical, fluorescence, DELFIA europium (AID 2099);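 further: signal counts dimethyl H3K9 product captured on neutravidin plate; 0% = median of DMSO wells and 100% = 0.3 times that DMSO median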
# Details: GST-JMJD2C(1-420) H3K9me3 demethylation, at 2.35 µM, hits give high values
row,Structure (SMILES),inhibition
1,O=C(c1cc2c(ccc3ccccc32)o1)N1CCCCC1,inconclusive: -60.2%
2,CCN1C(=O)CSC1=Nc1ccc(C(=O)O)cc1,inconclusive: -54%
3,COc1cccc(NC(=O)c2ocnc2C)c1,inconclusive: -233%
4,Cc1c(OCC(=O)NCC2CCC(C(=O)O)CC2)ccc2c(-c3ccccc3)cc(=O)oc12 (centres undefined),inconclusive: -270%
5,Cc1ccc(-c2c(C#N)c(N)n3c(nc4ccccc43)c2C#N)cc1,inconclusive: -51.7%
6,CCOC(=O)c1ccc(OCCOc2ccccc2C)cc1,inconclusive: -60%
7,COC(=O)c1ccc(C(=O)OC)c(NC(=S)N2CCCC(CO)C2)c1 (centres undefined),inconclusive: -51.5%
8,COCCNC(=O)C1CC(c2cccc(OC)c2)=NO1 (centres undefined),inconclusive: -119%
9,CCCCn1c2ccccc2c2nnc(SCCN3CCCCC3)nc21,inconclusive: -50%
10,CC1CCC2(CC1)NC(=O)N(CC(=O)N1c3ccccc3CC1C)C2=O (centres undefined),inactive: 3.56%
11,CCC1(C)Cc2ccccc2-c2nc(NCCO)[nH]c(=O)c21 (centres undefined),inactive: 11.5%
12,COc1cc(NC(=O)C2CSC3(C)CCC(=O)N23)c(OC)cc1Cl (centres undefined),inconclusive: -91.3%
13,CN(C)C(=O)N1CCC(C(=O)N2CCCC(C(=O)c3cccc4ccccc34)C2)CC1 (centres undefined),inactive: -4.06%
14,COC(=O)C(C(=O)OC)N1C(=O)CCC1=O,inconclusive: -167%
15,O=C(COc1ccc(F)cc1Cl)Nc1ccccc1C(=O)N1CCCCC1,inconclusive: -169%
16,CCc1cc(=O)oc2cc(C)cc(OCC(=O)NC(Cc3c[nH]c4ccc(O)cc34)C(=O)O)c12 (centres undefined),inconclusive: -153%
17,COc1ccc2cc(CCC(C)=O)ccc2c1,inconclusive: -28.4%
18,S=c1[nH]nc(C2CCCCC2)n1/N=C/c1ccncc1,inactive: 11.4%
19,COc1ccc(OC)c(NC(=O)CCN2CCN(c3ccccc3OC)CC2)c1,inconclusive: -139%
20,Cc1nonc1NC(=O)Nc1cccnc1,inconclusive: -96.7%
21,COc1ccc2oc(C(=O)OC(C)C(=O)NC3(C#N)CCCCC3)c(C)c2c1 (centres undefined),inconclusive: -51.2%
22,O=C(CSc1ccc(Cl)cc1)Nn1cnnc1,inactive: -0.233%
23,O=C(Nc1ccc(Nc2ccccc2)cc1)c1ccccc1F,inactive: 4.6%
24,COC(=O)CCC(=O)Nc1c(C)n(C)n(-c2ccccc2)c1=O,inactive: -6.93%
25,COc1ccc(C(=O)Oc2ccc(/C=N/NC(=O)Cc3ccc([N+](=O)[O-])cc3)cc2)cc1,inconclusive: -63.5%
26,COc1cccc(C(=O)N2CCN(Cc3ccc4c(c3)OCO4)CC2)c1OC,inconclusive: -56.6%
27,O=C(CSc1nnc(CNC(=O)c2cccs2)o1)c1ccccc1,active: 96.6%

# 6 neighbouring entries from above:
row,Structure (SMILES),inhibition
16,CCc1cc(=O)oc2cc(C)cc(OCC(=O)NC(Cc3c[nH]c4ccc(O)cc34)C(=O)O)c12 (centres undefined),inconclusive: -153%
17,COc1ccc2cc(CCC(C)=O)ccc2c1,inconclusive: -28.4%
18,S=c1[nH]nc(C2CCCCC2)n1/N=C/c1ccncc1,inactive: 11.4%
19,COc1ccc(OC)c(NC(=O)CCN2CCN(c3ccccc3OC)CC2)c1,inconclusive: -139%
20,Cc1nonc1NC(=O)Nc1cccnc1,inconclusive: -96.7%
21,COc1ccc2oc(C(=O)OC(C)C(=O)NC3(C#N)CCCCC3)c(C)c2c1 (centres undefined),inconclusive: -51.2%

# Additional structures:

row,Structure (SMILES),inhibition
1,Cc1ccccc1Cn1cc(NC(=O)c2cc(-c3ccco3)on2)cn1,inconclusive: -79.6%
2,Cc1cc(Cl)c(OCCCSc2nc(C)cc(=O)[nH]2)c(Br)c1,inactive: -0.0794%
3,CC(=O)N1CCN(CC(=O)Nc2cc(S(=O)(=O)N3CCOCC3)ccc2C)CC1,inactive: -0.261%
4,COc1ccccc1C(=O)N(C1=NC(C)CS1)c1ccc(Cl)cc1 (centres undefined),inconclusive: -52.5%
5,O=C(NC1CCCCC1)C(c1ccc(Cl)cc1)N(C(=O)c1cnccn1)c1ccc2c(c1)OCO2 (centres undefined),inconclusive: -220%
6,Cc1ccc(OCCn2c(C)c(/C=N/n3cnnc3)c3ccccc32)cc1,inconclusive: -53.5%
7,CC(OC(=O)Cn1c(C(F)(F)F)nc2ccccc21)C(=O)N1CCCc2ccccc21 (centres undefined),inactive: 0.957%
8,COc1c(O)cccc1-c1nnn(CCC(=O)OCC(=O)c2ccccc2)n1,inconclusive: -70.9%
9,Cc1cc2c(cc1C)N(CC(=O)N1CCCC1)C(=O)CC(c1ccccc1)=N2,inconclusive: -36.7%
10,Cc1nn(CC(=O)OCC(=O)NCCc2ccc(F)cc2)c(C)c1[N+](=O)[O-],inactive: 0.0878%
11,CCOC(=O)c1cnc(-n2nc(C)cc2C)nc1NC1CCCCC1,inconclusive: -129%
12,Cc1nc(NC(=O)c2ccccc2)sc1-c1csc(NCCc2ccccc2)n1,inactive: 2.06%
13,O=c1c(O)cccc2cc(O)c(O)c(O)c12,active: 87.1%
14,O=c1[nH]c2ccccc2n1CCC1CCCCC1,inconclusive: -208%
15,COc1ccc(NC(=O)CN2CCN(S(=O)(=O)c3ccc(Cl)cc3)CC2)cc1,inconclusive: -208%
16,CCOC(=O)c1ccc(NC(=O)C2=C(C)Nc3nc(CCCO)nn3C2c2ccc(OC)cc2)cc1 (centres undefined),inconclusive: -117%
17,CC(=O)c1cccc(CN2CCN(Cc3ccc(F)cc3)C(CCO)C2)c1 (centres undefined),inconclusive: -53.2%
18,CCCCCOc1ccc(C(=O)CCN2CCOCC2)cc1,inconclusive: -136%
19,CCOC(=O)N1CCN(CC(O)c2ccc3c(c2)CCN3)CC1 (centres undefined),inconclusive: -29.1%
20,O=C(c1noc2c1CCCC2)N1CCOCC1,inconclusive: -74.5%
21,CC(C)c1ccc(CC(C)C2C3=C(CCCC3=O)OC3=C2C(=O)CCC3)cc1 (centres undefined),inactive: 1.67%
22,CCOC(=O)C(NS(=O)(=O)c1ccc(Br)cc1)C(C)C (centres undefined),inconclusive: -186%
23,O=S1(=O)C=C(Sc2nc3cc(Cl)ccc3o2)c2ccccc21,inactive: -20.5%
24,CCc1ccc(CNC(=O)CCn2ccc3cc(S(=O)(=O)N4CCCC4)ccc32)cc1,inactive: -25%
25,Cc1cccc2c1-c1sc(C(=O)NCCCN3CCC(C)CC3)cc1CO2,inconclusive: -57.8%
26,Cc1ccc(NC(=O)CSc2nnc(CN3CCOCC3)n2C)cc1C,inactive: -6.7%
27,CCN(CC)c1ccc(NC(=O)c2[nH]c(C)c(C(C)=O)c2C)c(C)c1,inconclusive: -165%

row,Structure (SMILES),inhibition
1,COC(=O)/C=C1/SC(=NC(=O)c2cccc([N+](=O)[O-])c2)NC1=O,inconclusive: -106%
2,Cc1ccc(C(=O)NCC(=O)OCCOc2ccccc2Cl)cc1,inactive: -11.6%
3,CCOC(=O)C1=NN(c2ccc(C)cc2)C2(S1)SC(C(C)=O)=C(C)N2c1ccccc1 (centres undefined),inconclusive: -78.8%
4,Clc1ccc(-c2noc(/C=C/c3ccccc3)n2)cc1,inconclusive: -47.2%
5,CCC1(C)Cc2ccccc2-c2nc(NCCO)n(-c3ccccc3)c(=O)c21 (centres undefined),inconclusive: -76%
6,Cc1nn(C)c(N)c1C(O)(c1nccn1C)C(F)(F)F (centres undefined),active: 80.6%
7,CN1C(=O)N(C)C2CC1N(C)C(=O)N2C,inconclusive: -52.8%
8,COc1ccc(CCNCC(O)Cn2ccc3ccccc32)cc1OC (centres undefined),inconclusive: -60.1%
9,CC(Oc1ccc2c3c(c(=O)oc2c1)CCC3)C(=O)NCCCn1ccnc1 (centres undefined),inconclusive: -133%
10,N#Cc1c(NC(=O)CSc2ncn[nH]2)sc2c1CCCCC2,inactive: 2.07%
11,Cc1nc(N2CCN(S(=O)(=O)c3cccc4nonc34)CC2)c2c3c(sc2n1)CCCC3,inconclusive: -110%
12,Cc1cccnc1NC(=O)CNC(=O)C12CC3CC(CC(Cl)(C3)C1)C2,inconclusive: -58.9%
13,CCC(C)NC(=O)c1csc2c1CCCCC2 (centres undefined),inconclusive: -52%
14,Cc1ccc(-c2cc(C(F)(F)F)n3nc(C(=O)NCCCn4ccnc4)cc3n2)cc1C,inconclusive: -145%
15,Cc1c(Cc2ccccc2)c(=O)oc2cc(OCC(=O)NC(Cc3ccc(Cl)cc3)C(=O)O)ccc12 (centres undefined),inconclusive: -449%
16,COc1ccc(NC(=O)c2sc3nc(C)cc(C)c3c2N)cc1,inconclusive: -71.7%
17,CC(=O)Nc1nc(CC(C)C)cc(-c2ccco2)c1C#N,inactive: 4.38%
18,Cc1cc(C)nc(NC(N)=NC(C)c2ccccc2)n1 (centres undefined),active: 51%
19,CCN1C(=O)[C@H]2[C@@H](c3ccc(-c4cccc(Cl)c4)cc3)N[C@@](Cc3ccccc3)(C(=O)OC)[C@H]2C1=O,inconclusive: -192%
20,C=C(C)Cc1c(C)nc(-c2ccccc2)[nH]c1=O,inconclusive: -117%
21,O=C(Nc1cc(Cl)cc(Cl)c1)c1cccc(OC(F)F)c1,inconclusive: -34.9%
22,CCN1C(=O)[C@H]2[C@@H](c3ccc(-c4ccccc4)cc3)N[C@@](C)(C(=O)OC)[C@H]2C1=O,inconclusive: -134%
23,Cc1ccc(S(=O)(=O)Nc2c(C)n(C)n(-c3ccccc3)c2=O)cc1C(=O)OC(C)C(=O)N(C)c1ccccc1 (centres undefined),inconclusive: -51.6%
24,Cc1cccc(C(=O)N/N=C/C(C)Cc2ccc3c(c2)OCO3)c1 (centres undefined),active: 67.4%
25,CCCc1nc(SCC(=O)Nc2cc(C)on2)c2ccccc2n1,inactive: 2.18%
